{"source": "paper PMC11264232", "about": "“Are the metal identity and stoichiometry of metal complexes important for colchicine site binding and inhibition of tubulin polymerization?” (Dalton Transactions (Cambridge, England : 2003), 2024)", "system": "tubulin (colchicine site)", "experiment": "Inhibition of [3H]colchicine binding to tubulin", "source_text": "The methods used for determination of the IC50 values for tubulin assembly and inhibition of [^3H]colchicine binding were as described previously.[77]", "data": [{"smiles": "Cc1cc(NC([S-])=NN=Cc2cccc(C[NH+]3CCOCC3)n2)cc(C)c1O.[Cl-].[Cl-].[Pd+2]", "note": "[Complex 8, [Pd^II(HL^1)Cl]Cl]", "values": [{"measurement": "fold less potent than CA-4 in inhibiting [3H]colchicine binding", "setting": "5 μM", "result": 7, "unit": "fold"}, {"measurement": "factor of superiority over complex 4 in inhibiting [3H]colchicine binding", "setting": "25 μM", "result": 5}]}]}
